PubChem BioAssay AID1224830, NIAID, 2016

Assay: 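Regulators of TLR4 signalling towards TNF-alpha in macrophage-like cells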 (primary screen)
Cell system: human THP-1 monocytic leukaemia cells, TNF dual-luciferase reporter clone, PMA-differentiated to macrophage-like cells
Reagent: siRNA pool against human genes, 50 nM
Duration: LPS for 4 h, given about 3 days after siRNA transfection
Treatment: bacterial LPS (TLR4 ligand), 10 ng/ml
Read-out: 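TNF firefly reporter luminescence divided by renilla, normalised to the plate median, then turned into a robust z-score for each replicate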
Scale: TNF reporter robust z-score: higher = stronger TNF reporter response to LPS
Rule for the call: 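Each well counts as active if its z-score is over 2.8 or under -1.5; controls are left without a call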
The whole screen tested about 18,000 reagents; below is a random part of them. Over the whole deposit, about 2,900 (16%) are marked active. 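Calls are made per well; low scores hint the gene aids the LPS response, high scores that it dampens it.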 Unmarked entries are inactive. Repeated entries: four replicate wells of each siRNA pool. No sequences are given here.

UGDH
- TNF reporter robust z-score: -1.17

UGDH
- TNF reporter robust z-score: -0.67

UGDH
- TNF reporter robust z-score: -0.82

UGDH
- TNF reporter robust z-score: -0.77

GDAP2
- TNF reporter robust z-score: -0.01

GDAP2
- TNF reporter robust z-score: -0.66

GDAP2
- TNF reporter robust z-score: -0.96

GDAP2
- TNF reporter robust z-score: -0.06

GGA1
- TNF reporter robust z-score: 1.02

GGA1
- TNF reporter robust z-score: 0.9

GGA1
- TNF reporter robust z-score: -0.18

GGA1
- TNF reporter robust z-score: -0.07

FANK1
- TNF reporter robust z-score: -0.55

FANK1
- TNF reporter robust z-score: -0.09

FANK1
- TNF reporter robust z-score: 0.46

ZKSCAN2
- TNF reporter robust z-score: -0.51

ZKSCAN2
- TNF reporter robust z-score: -0.32

ZKSCAN2
- TNF reporter robust z-score: -0.9

ZKSCAN2
- TNF reporter robust z-score: -1.05

MBNL1
- TNF reporter robust z-score: -1.51 (active)

MBNL1
- TNF reporter robust z-score: -1.58 (active)

MBNL1
- TNF reporter robust z-score: -1.26

MBNL1
- TNF reporter robust z-score: -1.04

MAST2
- TNF reporter robust z-score: 1.25

MAST2
- TNF reporter robust z-score: 1.08

MAST2
- TNF reporter robust z-score: -1.04

MAST2
- TNF reporter robust z-score: -0.93

KCNK2
- TNF reporter robust z-score: 2.2

KCNK2
- TNF reporter robust z-score: 2.83 (active)

KCNK2
- TNF reporter robust z-score: -0.64

KCNK2
- TNF reporter robust z-score: 3.06 (active)

RBPMS
- TNF reporter robust z-score: -1.29

RBPMS
- TNF reporter robust z-score: -1.17

RBPMS
- TNF reporter robust z-score: -0.96

RBPMS
- TNF reporter robust z-score: -1.18

ETV7
- TNF reporter robust z-score: -0.74

ETV7
- TNF reporter robust z-score: -0.53

ETV7
- TNF reporter robust z-score: -1.22

ETV7
- TNF reporter robust z-score: -0.69

BRIX1
- TNF reporter robust z-score: 0.58

BRIX1
- TNF reporter robust z-score: -0.37

BRIX1
- TNF reporter robust z-score: 0.68

BRIX1
- TNF reporter robust z-score: 0.89

ISOC2
- TNF reporter robust z-score: 1.72

ISOC2
- TNF reporter robust z-score: 3.44 (active)

ISOC2
- TNF reporter robust z-score: 3.09 (active)

ISOC2
- TNF reporter robust z-score: 2.86 (active)
